Laboratory results published in PMC7275063.
Results are given in words; binding and its absence hold for the method and conditions named. Binding seen in cells or lysates may run through a third protein. Where a sequence is shown, tags or fusion partners need not be part of it.

By UniProt entry, the sequences of proteins in these tests, tags left out.
UniProt Q6PHN9: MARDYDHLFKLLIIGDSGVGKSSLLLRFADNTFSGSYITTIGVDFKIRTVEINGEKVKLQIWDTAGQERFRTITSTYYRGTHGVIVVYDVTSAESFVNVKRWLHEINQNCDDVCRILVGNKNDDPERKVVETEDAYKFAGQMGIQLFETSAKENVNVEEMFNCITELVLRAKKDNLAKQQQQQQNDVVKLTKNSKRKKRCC

Key:
GST-Rab35 (mouse) [1] = target: GST-Rab35 (mouse) (UniProt Q6PHN9); assay: pull-down; immobilised active GST-Rab35•GTP; lysates of HEK293T cells co-expressing eGFP-MTM1, -MTMR1 or -MTMR2 with FLAG-MTMR13; immunoblot; only the target purified
GST-Rab35 (mouse) [2] = target: GST-Rab35 (mouse) (UniProt Q6PHN9); assay: pull-down; 100 µg GST-Rab fusion on GST-bind beads loaded with 1 mM GTPγS; lysates of HEK293T cells overexpressing one tagged MTMR on its own; 2 h at 4 °C; immunoblot for eGFP or FLAG; only the target purified
GST-Rab35 (mouse) [3] = target: GST-Rab35 (mouse) (UniProt Q6PHN9); assay: pull-down; GST-Rab35•GTP; MTM1, MTMR1 or MTMR2 co-expressed with MTMR5 (Supplementary Fig. 1d-f); only the target purified

Measured: binding

B1: eGFP-MTM1 (protein, UniProt Q13496 1-603)
chain: MASASTSKYNSHSLENESIKRTSRDGVNRDLTEAVPRLPGETLITDKEVIYICPFNGPIKGRVYITNYRLYLRSLETDSSLILDVPLGVISRIEKMGGATSRGENSYGLDITCKDMRNLRFALKQEGHSRRDMFEILTRYAFPLAHSLPLFAFLNEEKFNVDGWTVYNPVEEYRRQGLPNHHWRITFINKCYELCDTYPALLVVPYRASDDDLRRVATFRSRNRIPVLSWIHPENKTVIVRCSQPLVGMSGKRNKDDEKYLDVIRETNKQISKLTIYDARPSVNAVANKATGGGYESDDAYHNAELFFLDIHNIHVMRESLKKVKDIVYPNVEESHWLSSLESTHWLEHIKLVLTGAIQVADKVSSGKSSVLVHCSDGWDRTAQLTSLAMLMLDSFYRSIEGFEILVQKEWISFGHKFASRIGHGDKNHTDADRSPIFLQFIDCVWQMSKQFPTAFEFNEQFLIIILDHLYSCRFGTFLFNCESARERQKVTERTVSLWSLINSNKEKFKNPFYTKEINRVLYPVASMRHLELWVNYYIRWNPRIKQQQPNPVEQRYMELLALRDEYIKRLEELQLANSAKLSDPPTSPSSPSQMMPHVQTHF
no binding: GST-Rab35 (mouse) [1] | GST-Rab35 (mouse) [2] | GST-Rab35 (mouse) [3]
